Source: paper PMC13596061
No constants are given. Whether binding was seen depends on the method and setting. For some assays here: A result given as binding can be weak or reduced; the word gives no strength.

Tests used:
[1] = biological target: PICLN (Arabidopsis thaliana); test: two-hybrid; one-to-one Y2H; CDSs in pGADT7 (AD) or pGBKT7 (BD); yeast strain AH109; co-transformants selected on SD -W -L at 28 °C; serial dilutions on SD -W -L -H; photos after 4 d
[2] = biological target: AtSPF30 (SPLICING FACTOR 30) (Arabidopsis thaliana); test: as above

| binding [1] | binding [2] | Binder |
| --- | --- | --- |
| no binding | – | AtPRMT7 (enzyme, UniProt Q944R7 1-724) MSPLSSLPPKTFISSFHCHSVTRLRRSVTARTMSSQSSQRVFQLRQDPLTGNSEWIVIEDNDQPGTSTDGLLATTSYLDMLNDSRRNIAYRLAIEKTITEPCHVLDIGAGTGLLSMMAVRAMRGDSKGMVTACESYLPMVKLMRKVMHKNGMTKNINLINKRSDELKVGSEDIASRADVLVSEILDSELLGEGLIPSLQHAHDMLLVDNPKTVPYRATTYCQLVESTFLCNLQDLRNNEAKTSDGVRLVPPGLESLFGIKSQQYSMHVDAIEKEIKLLSEPVKIFEFDFWKRPESNGELDVHIEAKTTGSVHAIISWWVLQLDSEGTIFYSTAPRWIDSNSEIGVRDWCDHWKQCVWFTPGTGVSISKGEKVHLHASHTCTNILYNLKKTQSLTHERTHFPLSTGDLHLTLPPERVAIYGDSIYRQSLFEATRKALQGKSYPQCLVIDDSLLLPLMALHISNRSRVLSLSPGLQENAARYFEAIADSNGFSKDRFEYFRDGKTNLAKAYPGKIDLLIGEPYYSGLENGLPWQNLRFWKDRTLLDSVLSEDAVVMPYKGVLRGCAMYLPDLWKSRCCLGSVEGFDHTLVNTTLGGCGDLPSGKDSPCLPFFIWQCGETKILSKEFTVMEFDFSKPITGPCSGEVQIEFIKPGVCHGIALWMDWVMDEENSTVISTGPDDKYWKQGVKLLGKPVTVRMEGPSSSIGIQASLDLSSNSELIVTHTIS |
| – | binds | 6B-interacting protein 1-like-1 (ASIL1) (protein, UniProt Q9SYG2 1-383) MEDDDEIQSIPSPGDSSLSPQAPPSPPILPTNDVTVAVVKKPQPGLSSQSPSMNALALVVHTPSVTGGGGSGNRNGRGGGGGSGGGGGGRDDCWSEEATKVLIEAWGDRFSEPGKGTLKQQHWKEVAEIVNKSRQCKYPKTDIQCKNRIDTVKKKYKQEKAKIASGDGPSKWVFFKKLESLIGGTTTFIASSKASEKAPMGGALGNSRSSMFKRQTKGNQIVQQQQEKRGSDSMRWHFRKRSASETESESDPEPEASPEESAESLPPLQPIQPLSFHMPKRLKVDKSGGGGSGVGDVARAILGFTEAYEKAETAKLKLMAELEKERMKFAKEMELQRMQFLKTQLEITQNNQEEEERSRQRGERRIVDDDDDRNGKNNGNVSS |
